Earlier results in patent publication US12064412B2 (SUN YAT-SEN UNIVERSITY, priority 2019, dated 2024).
The name of at least one read-out is uncertain.

Details: oral dosage of 21 mg/kg, as reported by documents; cited from earlier work

For `O=C1C[C@@H](c2ccc(O)cc2)Oc2cc(O)cc(O)c21` [naringenin], the Cmax is given as 54.76 ng/g.
